From paper PMC12431657, “Discovery and mechanistic insights of dibenzoylmethane as a broad spectrum inhibitor of coronavirus” (PLOS Pathogens, 2025)
Structures can show the parent of a compound that is named as a salt. Where two headings read alike, the source gives them in different places. In all, about 3,300 compounds went through this assay and about 95 (3%) showed an effect of 50% or more. The list shows a part of the results. Peptide text beside a SMILES is read from it.

System: HCoV-229E
Parameters: species or system Huh-7; HTS, protection from HCoV-229E induced cell death, luminescent cell viability (CellCounting-Lite 2.0), inhibition rate
Conditions: 24 h post infection, 1 h compound pre-incubation, 10 µM, inhibitor

Structure (SMILES) | 229E Inhibition rate | 229E Inhibition rate (229E Inhibition rate, 24 h)
CN(C)CC(=O)O [N-Methylsarcosine] | 11.2% | –
CC(C)(O)[C@@H]1CC[C@](C)([C@H]2[C@@H](O)C[C@@]3(C)[C@@H]4C[C@H](O)[C@H]5C(C)(C)[C@@H](O[C@@H]6OC[C@@H](O)[C@H](O)[C@H]6O[C@@H]6O[C@H](CO)[C@@H](O)[C@H](O)[C@H]6O)CC[C@@]56C[C@@]46CC[C@]23C)O1 [Astragaloside III] | 10.8% | –
O=C(/C=C/c1ccc(O)c(O)c1)O[C@@H]1C[C@](O)(C(=O)O)C[C@@H](OC(=O)/C=C/c2ccc(O)c(O)c2)[C@H]1O [Isochlorogenic acid A] | 23.1% | –
CCCCCCCC/C=C\CCCCCCCC(=O)OCC(O)CO (stereo not shown) [Monoolein] | 25.9% | –
C=C(C)[C@@H]1CC[C@]2(C(=O)O)CC[C@]3(C)[C@H](CC[C@@H]4[C@@]5(C)CC[C@H](OC(=O)CC(C)(C)C(=O)O)C(C)(C)[C@@H]5CC[C@]43C)[C@@H]12 [Bevirimat] | 18.7% | –
NC(N)=NOCC[C@H](N)C(=O)O [L-Canavanine sulfate] | 10.7% | –
Cc1ccc2[nH]c3ccccc3c2c1 [3-Methylcarbazole] | 7.9% | –
O=c1ccc2nccc3c4ccccc4n1c23 [Canthin-6-one] | 19.5% | –
CN1C(=O)CC[C@H]1c1cccnc1 [Cotinine] | 7% | –
O=C(O[C@@H]1[C@@H](O)[C@H](Oc2cc(O)c(C(=O)CCc3ccccc3)c(O)c2)O[C@@H]2COC(=O)c3cc(O)c(O)c(O)c3-c3c(cc(O)c(O)c3O)C(=O)O[C@@H]12)c1cc(O)c(O)c(O)c1 [Thonningianin A] | 2.9% | –
N[C@@H](Cn1oc(=O)[nH]c1=O)C(=O)O [Quisqualic acid] | 41.8% | –
Cc1cc(=O)c2c(O)c3c(O)cc(O)c4c5c(O)cc(O)c6c(O)c7c(=O)cc(C)cc7c(c65)c(c2c1)c34 [Protohypericin] | 49.2% | –
CC(=O)c1ccc[nH]1 [2-Acetylpyrrole] | 51.6% | –
CO[C@@H]1[C@H](OC(=O)/C=C/C=C/C=C/C=C/C(=O)O)CC[C@]2(CO2)[C@H]1[C@@]1(C)O[C@@H]1CC=C(C)C [Fumagillin] | 17.1% | –
COc1cc(CCC(=O)O)ccc1O [Dihydroferulic acid] | 28.8% | –
CCCCCCCCCCCCCCCCCC(=O)OC [Methyl stearate] | 17.9% | –
CC1=C\[C@@H](O)CC(=O)Cc2nc(co2)C(=O)N2CCC=C2C(=O)O[C@H](C(C)C)[C@H](C)/C=C/C(=O)NC\C=C\1 [Virginiamycin M1] | 36.6% | –
COc1c(/C=C/C(=O)c2ccc(O)c(CC=C(C)C)c2)ccc(O)c1O [Licochalcone D] | 3.4% | –
CC(C)=CC1CC(O)(C2CCC3(C)C2CCC2C4(C=O)CCC(OC5OCC(O)C(OC6OCC(O)C(O)C6O)C5OC5OC(C)C(O)C(O)C5O)C(C)(C)C4CCC23C)C(O)O1 (stereo not shown) [Gypenoside A] | 11.3% | –
O=C1C=CC[C@@H]2[C@H]3CCCN4CCC[C@@H](CN12)[C@@H]34 [Sophocarpine (monohydrate)] | – | 23.9%

Structure (SMILES) | 229E Inhibition rate | 229E Inhibition rate (229E Inhibition rate, 24 h)
CCCCC[C@H](O)/C=C/[C@H]1[C@H](O)CC(=O)[C@@H]1C/C=C\CCCC(=O)O [Prostaglandin E2] | 27.2% | –
COc1cc(C(=O)O)ccc1O [Vanillic acid] | 50% | –
C=C(C)[C@@H]1CC[C@]2(CO)CC[C@]3(C)[C@H](CC[C@@H]4[C@@]5(C)CC[C@H](O)C(C)(C)[C@@H]5CC[C@]43C)[C@@H]12 [Betulin] | 3.8% | –
O[C@H]1[C@H](O)[C@@H](O)[C@H](O)[C@@H](O)[C@H]1O [i-Inositol] | 17.8% | –
C[C@@H](CO[C@@H]1O[C@H](CO)[C@@H](O)[C@H](O)[C@H]1O)[C@@H]1CC[C@@]2(CC[C@]3(C)[C@H](CC[C@@H]4[C@@]5(C)CC[C@H](O[C@@H]6O[C@H](CO)[C@@H](O)[C@H](O)[C@H]6O[C@@H]6O[C@H](CO)[C@@H](O)[C@H](O)[C@H]6O)[C@@](C)(CO[C@@H]6O[C@H](CO)[C@@H](O)[C@H](O)[C@H]6O)[C@@H]5CC[C@]43C)[C@H]2O)CO1 [Hosenkoside K] | 58.2% | –
COc1cc(O)cc(OC)c1 [3,5-Dimethoxyphenol] | 32.7% | –
COC(=O)C[C@](O)(CCCC(C)(C)O)C(=O)O[C@@H]1C(OC)=C[C@]23CCCN2CCc2cc4c(cc2[C@H]13)OCO4 [Homoharringtonine] | 21% | –
O=C(/C=C/c1ccc(O)c(O)c1)O[C@@H]1CC(C(=O)O)=C[C@@H](O)[C@H]1O [5-O-Caffeoylshikimic acid] | 12% | –
C=C[C@H]1CN2CC[C@H]1C[C@H]2[C@H](O)c1ccnc2ccccc12 [Cinchonidine] | 13.4% | –
O=C(O)CC(CC(=O)O)C(=O)O [Tricarballylic acid] | 13.6% | –
COC(=O)c1c(C)cc(OC(=O)c2c(C)cc(O)c(C=O)c2O)c(C)c1O [Atranorin] | 8.5% | –
OCC1=C[C@@H](O)[C@]2(O[C@@H]3O[C@H](CO)[C@@H](O)[C@H](O)[C@H]3O[C@@H]3O[C@H](CO)[C@@H](O)[C@H](O)[C@H]3O)C=CO[C@@H](O[C@@H]3O[C@H](CO)[C@@H](O)[C@H](O)[C@H]3O)[C@H]12 [Rehmannioside D] | 9.2% | –
CC1=CC=C(C(C)C)CC1 [α-Terpinene] | 7.1% | –
O=c1cc(-c2ccc(O)cc2)oc2c([C@@H]3O[C@H](CO)[C@@H](O)[C@H](O)[C@H]3O)c(O)c([C@@H]3O[C@H](CO)[C@@H](O)[C@H](O)[C@H]3O)c(O)c12 [Vicenin 2] | 11.8% | –
N#CCc1c[nH]c2ccccc12 [3-Indoleacetonitrile] | 21.6% | –
COc1cc(/C=C/C(=O)OC[C@H]2O[C@H](O[C@]3(CO)O[C@H](CO)[C@@H](O)[C@@H]3O)[C@H](O)[C@@H](O)[C@@H]2O)cc(OC)c1O [Sibiricose A1] | 18.6% | –
Nc1c(O)cccc1C(=O)O [3-Hydroxyanthranilic acid] | 0% | –
CC1=NCCc2c1[nH]c1cc(O)ccc21 [Harmalol (hydrochloride)] | 22% | –
COc1nccc(N)n1 [2-O-Methylcytosine] | 0% | –
COc1cc(/C=C/C(=O)NCC(O)c2ccc(O)cc2)ccc1O (stereo not shown) [N-Feruloyloctopamine] | 7.9% | –

Retrieved by structure from above:
Structure (SMILES) | 229E Inhibition rate | 229E Inhibition rate (229E Inhibition rate, 24 h)
COc1cc(/C=C/C(=O)OC[C@H]2O[C@H](O[C@]3(CO)O[C@H](CO)[C@@H](O)[C@@H]3O)[C@H](O)[C@@H](O)[C@@H]2O)cc(OC)c1O [Sibiricose A1] | 18.6% | –
CC1=CC=C(C(C)C)CC1 [α-Terpinene] | 7.1% | –
O=C(O)CC(CC(=O)O)C(=O)O [Tricarballylic acid] | 13.6% | –
O=c1cc(-c2ccc(O)cc2)oc2c([C@@H]3O[C@H](CO)[C@@H](O)[C@H](O)[C@H]3O)c(O)c([C@@H]3O[C@H](CO)[C@@H](O)[C@H](O)[C@H]3O)c(O)c12 [Vicenin 2] | 11.8% | –

Next structures:

Structure (SMILES) | 229E Inhibition rate | 229E Inhibition rate (229E Inhibition rate, 24 h)
C[C@@]12C=Cc3occc3[C@H]1CC[C@@]13C[C@@H](CC[C@H]12)[C@@](O)(CO)C3 [Kahweol] | 6.3% | –
COc1ccc2c3ccnc4ccc(=O)n(c2c1)c43 [9-Methoxycanthin-6-one] | 21.1% | –
C[C@@H]1C[C@H]2O[C@@]3(O[C@@H]2C(C)(C)O)[C@H](O)[C@@]2(C)[C@@H]4CC[C@H]5C(C)(C)[C@@H](O[C@@H]6OC[C@@H](O)[C@H](O)[C@H]6O)CC[C@@]56C[C@@]46CC[C@]2(C)[C@@H]13 [Cimigenoside] | 8.8% | –
CC(C)(O)[C@@H]1CC[C@](C)([C@H]2[C@@H](O)C[C@@]3(C)[C@@H]4C[C@H](O[C@@H]5O[C@H](CO)[C@@H](O)[C@H](O)[C@H]5O)[C@H]5C(C)(C)[C@@H](O[C@@H]6OC[C@@H](O)[C@H](O)[C@H]6O)CC[C@@]56C[C@@]46CC[C@]23C)O1 [Astragaloside IV] | 7.4% | –
CC(=O)NCCCCCC(=O)O [6-Acetamidohexanoic acid] | 10.9% | –
O=C(O)CNC(=O)[C@@H]1CCCN1 [L-Prolylglycine] (H-Pro-Gly-OH) | 8.2% | –
O=C(CO)[C@@H](O[C@H]1O[C@H](CO)[C@@H](O)[C@H](O)[C@H]1O)[C@H](O)[C@H](O)CO [Turanose] | 9% | –
CC(C)=CCO [3-Methyl-2-buten-1-ol] | 18.9% | –
C[C@]12CCC(=O)C=C1CC[C@@H]1[C@@H]2[C@@H](O)C[C@]2(C=O)[C@@H](C(=O)CO)CC[C@@H]12 [Aldosterone] | 45.1% | –
c1coc(CNc2ncnc3[nH]cnc23)c1 [Kinetin] | 43% | –
COC(=O)c1ccc(O)c(OC)c1 [Methyl vanillate] | 0% | –
Cc1c(O)cc2c(c1C)O[C@](C)(CCC[C@H](C)CCC[C@H](C)CCCC(C)C)CC2 [γ-Tocopherol] | 8.2% | –
NC(Cc1ccc(O)c(O)c1)C(=O)O (racemic) [DL-Dopa] | 19.1% | –
COc1ccc2cc3[n+](cc2c1OC)CCc1cc2c(cc1-3)OCO2 [Berberine (sulfate)] | – | 20.5%
COc1cc(C[C@H]2COC(=O)[C@@H]2Cc2ccc(O)c(OC)c2)ccc1O [Matairesinol] | 26.8% | –
COc1cc2c(=O)c(-c3ccc(O)cc3)coc2cc1O[C@@H]1O[C@H](COC(C)=O)[C@@H](O)[C@H](O)[C@H]1O [6''-O-Acetylglycitin] | 0% | –
C=Cc1ccc(O)c(OC)c1 [2-Methoxy-4-vinylphenol] | 10.2% | –
CC(C)=CCC[C@](C)(O[C@@H]1O[C@H](CO[C@@H]2O[C@@H](CO)[C@H](O)[C@H]2O)[C@@H](O)[C@H](O)[C@H]1O)[C@H]1CC[C@]2(C)[C@@H]1[C@H](O)C[C@@H]1[C@@]3(C)CC[C@H](O[C@@H]4O[C@H](CO)[C@@H](O)[C@H](O)[C@H]4O)C(C)(C)[C@@H]3CC[C@]12C [Notoginsenoside Fe] | 12.2% | –
